Reference: PubChem BioAssay AID720505 (Drosophila RNAi Screening Center, 2013)
In all, the deposit lists about 20,000 reagents; below is a random part of those that have a named target and a result. Over the whole deposit, about 2,100 (10%) got an active call. 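Raw plate signals without normalisation; calls rest on control-based scores that were not deposited; replicate 2 separates called from uncalled poorly.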 Reagents against one gene are numbered here. A plus sign joins genes that one reagent is predicted to hit. Reagent sequences are not shown. Not stated in the record: the amount of reagent, the time to read-out.

Screen: 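Fly regulators or components of the CRAC channel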 (primary screen)
System: Drosophila S2R+ cells
Reagent: long dsRNA against Drosophila genes
Treatment: thapsigargin (2 µM) in calcium-free buffer to empty internal stores, then 2 mM calcium added back
Detection: 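Stores emptied by 2 µM thapsigargin without calcium, then 2 mM calcium re-added; fluo-4 fluorescence followed by FLIPR in 384-well plates, per-well averaged endpoint, raw; two screen passes, some wells retested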
Reading the numbers: calcium signal and retest calcium signal: higher = more calcium entry after store depletion
Hit rule: 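About 1500 genes called as lowering calcium entry, by varying amounts, judged against per-plate control wells with STIM1 as positive and Rho1 as negative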
Calls: active = called as lowering calcium entry; inactive = not called

gene | reagent | calcium signal, replicate 1 | calcium signal, replicate 2 | retest calcium signal, replicate 1 | retest calcium signal, replicate 2 | outcome
Pka-C1 | 1 | 95 | 102 | – | – | inactive
Pka-C1 | 2 | 130 | 156 | – | – | inactive
CG7791 | 1 | 120 | 134 | – | – | inactive
CG13526 | 1 | 95.7 | 151 | – | – | inactive
Blos2 | 1 | 121 | 130 | – | – | inactive
CG10469 | 1 | 109 | 60.6 | – | – | inactive
Pp1-87B | 1 | 90.2 | 183 | – | – | inactive
Pp1-87B | 2 | 150 | 162 | – | – | inactive
edin | 1 | – | – | – | – | inactive
CG30413 | 1 | 56.7 | 63.4 | – | – | active
Nin | 1 | 139 | 166 | – | – | inactive
dmrt11E | 1 | 134 | 118 | 92.1 | 91.2 | inactive
IntS3 | 1 | 118 | 88.2 | – | – | inactive
Rad9 | 1 | 122 | 78.3 | – | – | inactive
Cks30A | 1 | 82.1 | 99.8 | – | – | inactive
Pka-R1 | 1 | 147 | 85.7 | – | – | inactive
Pka-R1 | 2 | 124 | 126 | – | – | inactive
CG15550 | 1 | 157 | 130 | – | – | inactive
Ance-4 | 1 | 139 | 88.5 | – | – | inactive
CG14302 | 1 | 147 | 136 | – | – | inactive
Caf1-55 | 1 | 80 | 137 | – | – | inactive
lms | 1 | 77.1 | 123 | – | – | inactive
CG12853 | 1 | 69.6 | 57 | 130 | 199 | active
sa | 1 | 56.7 | 196 | 7881 | 146 | active
CG10321 | 1 | 94.5 | 130 | – | – | inactive
CG8838 | 1 | 139 | 203 | – | – | inactive
brp | 1 | 143 | 123 | – | – | inactive
brp | 2 | 152 | 162 | – | – | inactive
brp | 3 | 140 | 146 | – | – | inactive
brp | 4 | 113 | 295 | – | – | inactive
CG15020 | 1 | 87.5 | 79 | – | – | inactive
CG12012 | 1 | 83 | 86.8 | – | – | inactive
CG17440 | 1 | 83.3 | 78.6 | – | – | inactive
Cyp12d1-d + Cyp12d1-p | 1 | 174 | 117 | – | – | inactive
dgt5 | 1 | 204 | 161 | – | – | inactive
Nplp4 | 1 | 128 | 105 | – | – | inactive
TTLL4A | 1 | 90.7 | 123 | – | – | inactive
Cyp9h1 | 1 | 95.1 | 204 | – | – | inactive
CG7763 | 1 | 134 | 168 | – | – | inactive
CD98hc | 1 | 95.8 | 162 | – | – | inactive

Limited to “calcium signal, replicate 2” (5 entries from above):
Pka-C1 #2: 156
CG7791: 134
CG13526: 151
Blos2: 130
CG10469: 60.6

Further results follow:
gene | reagent | calcium signal, replicate 1 | calcium signal, replicate 2 | retest calcium signal, replicate 1 | retest calcium signal, replicate 2 | outcome
Mst84Db | 1 | 106 | 148 | – | – | inactive
Mst84Db | 2 | 82.8 | 87.7 | – | – | inactive
Acp1 | 1 | 78.5 | 94 | – | – | active
Mtl | 1 | 126 | 118 | – | – | inactive
gek | 1 | 171 | 118 | – | – | inactive
hmw | 1 | 224 | 235 | – | – | inactive
Usp7 | 1 | 101 | 107 | – | – | inactive
Timp | 1 | 87.2 | 132 | – | – | inactive
Cpr11B | 1 | 132 | 120 | – | – | inactive
ttk | 1 | 55.7 | 105 | – | – | active
CG2021 | 1 | 89.3 | 61.3 | – | – | inactive
CG14892 | 1 | 87 | 96.8 | – | – | inactive
CG14826 | 1 | 76.2 | 61 | – | – | inactive
CG15422 | 1 | 69.5 | 191 | – | – | active
CG40485 | 1 | 67.2 | 186 | – | – | active
CG4133 | 1 | 126 | 128 | – | – | inactive
CG4133 | 2 | 88.8 | 159 | – | – | inactive
CG13801 | 1 | 90.3 | 89 | – | – | inactive
Acat1 | 1 | 128 | 140 | – | – | inactive
GstD7 | 1 | 127 | 88.4 | 102 | 72.9 | inactive
AstCC | 1 | 155 | 146 | – | – | inactive
wmd | 1 | 62.9 | 153 | – | – | active
St1 | 1 | 62.5 | 149 | – | – | active
Fbxl4 | 1 | 181 | 108 | – | – | inactive
CG16986 | 1 | 83.1 | 74.5 | – | – | inactive
Cpr50Ca | 1 | 98.3 | 124 | – | – | inactive
Cpr50Ca | 2 | 120 | 220 | – | – | inactive
Cpr50Ca | 3 | 105 | 184 | – | – | inactive
COX4 | 1 | 105 | 99 | – | – | inactive
Nepl19 | 1 | 129 | 182 | – | – | inactive
CkIIalpha | 1 | 110 | 169 | – | – | inactive
Gr59a | 1 | 296 | 117 | – | – | inactive
CG14515 | 1 | 113 | 97.5 | – | – | inactive
CG30088 | 1 | 182 | 133 | – | – | inactive
CG2070 | 1 | 137 | 185 | – | – | inactive
lama | 1 | 110 | 104 | – | – | inactive
CG4546 | 1 | 114 | 193 | – | – | inactive
CG32551 | 1 | 96.8 | 104 | – | – | inactive
Ten-a | 1 | 92.7 | 83.1 | – | – | inactive
Ten-a | 2 | 98.5 | 90 | – | – | inactive
Ten-a | 3 | 124 | 81 | – | – | inactive
Ten-a | 4 | 118 | 95.2 | – | – | inactive
Ten-a | 5 | 75.4 | 120 | – | – | active
Ten-a | 6 | 125 | 88.7 | – | – | inactive
Ten-a | 7 | 160 | 83.8 | – | – | inactive
Ten-a | 8 | 124 | 159 | – | – | inactive
polyph | 1 | 141 | 172 | – | – | inactive
tobi | 1 | 287 | 113 | – | – | inactive
Met75Ca + Met75Cb | 1 | 103 | 194 | – | – | inactive
CG42399 | 1 | 186 | 123 | – | – | inactive
CG42399 | 2 | 152 | 105 | – | – | inactive
bnk | 1 | 174 | 125 | – | – | inactive
Prosalpha1R + Prosalpha1 | 1 | 99.5 | 89.8 | – | – | active
RalGPS | 1 | 111 | 120 | – | – | inactive
CG7458 | 1 | 96.9 | 146 | 6510 | 123 | inactive
CG7458 | 2 | 124 | 95.3 | – | – | inactive
ms(3)76Ba | 1 | 101 | 179 | – | – | inactive
CG5715 | 1 | 216 | 145 | – | – | inactive
CG3330 | 1 | 113 | 123 | – | – | inactive
DCTN6-p27 | 1 | 68.2 | 126 | 102 | 100 | active
DCTN6-p27 | 2 | 89.3 | 102 | – | – | inactive
how | 1 | 246 | 156 | – | – | inactive
CG9346 | 1 | 192 | 94.1 | – | – | inactive
CG11843 | 1 | 154 | 163 | – | – | inactive
CG11298 | 1 | 89.1 | 128 | – | – | inactive
CG32192 | 1 | 139 | 97 | – | – | inactive
